According to patent publication US20230383006A1:
No constants are given. Whether binding was seen depends on the method and setting. Some entries that bind do so weakly or less than the wild type.

The chains behind the UniProt entries cited, without tags or fusion partners. Where a name states a change or a piece, a line headed by the entry shows the natural chain unless it says otherwise.
UniProt P27487: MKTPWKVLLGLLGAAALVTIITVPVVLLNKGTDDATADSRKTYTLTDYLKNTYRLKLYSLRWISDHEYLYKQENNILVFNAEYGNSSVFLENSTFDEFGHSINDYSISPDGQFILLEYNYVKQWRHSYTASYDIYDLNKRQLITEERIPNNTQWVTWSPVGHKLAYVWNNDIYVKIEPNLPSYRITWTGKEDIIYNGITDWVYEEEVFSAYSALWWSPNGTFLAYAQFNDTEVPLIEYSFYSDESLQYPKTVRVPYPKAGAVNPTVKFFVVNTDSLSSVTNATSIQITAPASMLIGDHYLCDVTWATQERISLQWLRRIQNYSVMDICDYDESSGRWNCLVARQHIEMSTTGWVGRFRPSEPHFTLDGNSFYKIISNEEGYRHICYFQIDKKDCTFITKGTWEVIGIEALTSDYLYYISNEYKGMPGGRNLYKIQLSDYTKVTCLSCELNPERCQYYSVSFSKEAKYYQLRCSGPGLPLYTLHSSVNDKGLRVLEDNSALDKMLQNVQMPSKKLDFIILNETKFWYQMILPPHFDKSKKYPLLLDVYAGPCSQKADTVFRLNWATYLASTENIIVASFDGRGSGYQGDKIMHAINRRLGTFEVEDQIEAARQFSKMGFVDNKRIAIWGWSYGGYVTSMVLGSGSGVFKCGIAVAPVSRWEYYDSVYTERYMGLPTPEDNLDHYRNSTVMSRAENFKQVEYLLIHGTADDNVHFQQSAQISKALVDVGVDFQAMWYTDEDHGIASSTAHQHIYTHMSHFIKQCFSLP

Experiments:
[1] = target: human CD26 expressed on human T lymphocytes (human) (UniProt P27487); test: multiparametric flow cytometry on lymphocytes from human peripheral blood, CD3 (FL1-H) against CD26/CDina26 (FL2-H)
[2] = target: human CD26 expressed on human T lymphocytes (human) (UniProt P27487); test: flow cytometry on human lymphocyte subpopulations
SGPGLP = target: T1, SGPGLP; test: CLIPS discontinuous peptide ELISA, average over all discontinuous peptides that contain the sequence
T1 sequence (peptide): SGPGLP

[3] = target: T2, …; test: as above
T2 sequence (peptide): TTGWVGRFRPSEPHF

[4] = target: T3, …; test: as above; remark: listed apart in the source
T3 sequence (peptide): TFITKGTWEVIG

[5] = target: T4, …; test: as above; remark: listed apart in the source
T4 sequence (peptide): DYDESSGRWNCLVAR

[6] = target: T5, …; test: as above; remark: listed apart in the source
T5 sequence (peptide): SCELNPERCQYY

[7] = target: T6, …; test: as above; remark: listed apart in the source
T6 sequence (peptide): DYLYYISNE

[8] = target: T7, …; test: as above; remark: listed apart in the source
T7 sequence (peptide): DVTWATQERISLQWL

[9] = target: Human Antigen (purchased from Sigma CAT #D4943) (human) (UniProt P27487); test: Biacore, CDina26 captured by an immobilized polyclonal anti-mouse Ig antibody, Human Ag injected in solution at two concentrations

Measured: binding

B1: CDina26 (antibody, mouse IgG2b, kappa, V domains shown)
VH: QVQLQQSGAELVKPGASVKLSCKASGYTFRSYDINWVRQRPEQGLEWIGWIFPGDGSTKYNEKFKGKATLTTDKSSSTAYMQLSRLTSEDSAVYFCARWTVVGPGYFDVWGAGTTVTVSS
VL: QIVLTQSPAIMSASPGEKVTITCSASSSVSYMNWFQQKPGTSPKLWIYSTSNLASGVPARFSGSGSGTSYSLTISRMEAEDAATYYCQQRSSYPNTFGGGTKLEIKR
binds: all assays above
